Source: the supplement of paper PMC8728848
Some of the results follow.

What was measured:
Test in all cases: glycan array binding signal (z-score within array); higher = stronger binding
Conditions in all cases: glycan notation: IUPAC condensed, linker removed
[1] = biological target: Gal(b1-3)GlcNAc(b1-3)Gal(b1-4)GlcNAc(b1-2)[Gal(b1-3)GlcNAc(b1-3)Gal(b1-4)GlcNAc(b1-6)]Man(a1-6)[Gal(b1-3)GlcNAc(b1-3)Gal(b1-4)GlcNAc(b1-2)Man(a1-3)]Man(b1-4)GlcNAc(b1-4)[Fuc(a1-6)]GlcNAc
Method in brief: (§1)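 The Consortium for Functional Glycomics database supplied 3228 glycan arrays, of which those lacking an available protein sequence were dropped. The binding signal, a within-array Z-score, was averaged across arrays of the same protein sequence and across linkers. Negative scores can be read as non-binding.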

[2] = biological target: Gal(b1-3)GlcNAc(b1-3)Gal(b1-4)GlcNAc(b1-3)Gal(b1-4)GlcNAc(b1-2)[Gal(b1-3)GlcNAc(b1-3)Gal(b1-4)GlcNAc(b1-3)Gal(b1-4)GlcNAc(b1-6)]Man(a1-6)[Gal(b1-3)GlcNAc(b1-3)Gal(b1-4)GlcNAc(b1-3)Gal(b1-4)GlcNAc(b1-2)Man(a1-3)]Man(b1-4)GlcNAc(b1-4)[Fuc(a1-6)]GlcNAc
Method in brief: as §1

[3] = biological target: Gal(b1-3)GlcNAc(b1-3)Gal(b1-4)GlcNAc(b1-6)[Gal(b1-3)GlcNAc(b1-3)]Gal(b1-4)Glc
Method in brief: as §1

[4] = biological target: Gal(b1-3)GlcNAc(b1-3)Gal(b1-4)[Fuc(a1-3)]GlcNAc
Method in brief: as §1

[5] = biological target: Gal(b1-3)GlcNAc(b1-3)Gal(b1-4)[Fuc(a1-3)]GlcNAc(b1-6)[Gal(b1-3)GlcNAc(b1-3)]Gal(b1-4)Glc
Method in brief: as §1

[6] = biological target: Gal(b1-3)GlcNAc(b1-3)GalNAc
Method in brief: as §1

[7] = biological target: Gal(b1-3)GlcNAc(b1-6)Gal(b1-4)GlcNAc
Method in brief: as §1

[8] = biological target: Gal(b1-3)GlcNAc(b1-6)GalNAc
Method in brief: as §1

[9] = biological target: Gal(b1-3)GlcNAc(b1-6)[Gal(b1-3)]GalNAc
Method in brief: as §1

Gal(b1-3)GlcNAc6S = biological target: Gal(b1-3)GlcNAc6S
Method in brief: as §1

[10] = biological target: Gal(b1-3)[Fuc(a1-4)]GlcNAc
Method in brief: as §1

[11] = biological target: Gal(b1-3)[Fuc(a1-4)]GlcNAc(b1-2)Man
Method in brief: as §1

[12] = biological target: Gal(b1-3)[Fuc(a1-4)]GlcNAc(b1-2)Man(a1-3)[Gal(b1-3)[Fuc(a1-4)]GlcNAc(b1-2)Man(a1-6)]Man(b1-4)GlcNAc(b1-4)[Fuc(a1-6)]GlcNAc
Method in brief: as §1

[13] = biological target: Gal(b1-3)[Fuc(a1-4)]GlcNAc(b1-3)Gal(b1-3)[Fuc(a1-4)]GlcNAc
Method in brief: as §1

[14] = biological target: Gal(b1-3)[Fuc(a1-4)]GlcNAc(b1-3)Gal(b1-4)[Fuc(a1-3)]GlcNAc
Method in brief: as §1

[15] = biological target: Gal(b1-3)[Fuc(a1-4)]GlcNAc(b1-6)GalNAc
Method in brief: as §1

[16] = biological target: Gal(b1-3)[GlcNAc(b1-6)]GalNAc
Method in brief: as §1

[17] = biological target: Gal(b1-3)[Neu5Ac(a2-6)]GalNAc
Method in brief: as §1

[18] = biological target: Gal(b1-3)[Neu5Ac(a2-6)]GlcNAc(b1-4)Gal(b1-4)Glc
Method in brief: as §1

[19] = biological target: Gal(b1-3)[Neu5Ac(b2-6)]GalNAc
Method in brief: as §1

Gal(b1-4)Gal = biological target: Gal(b1-4)Gal
Method in brief: as §1

[20] = biological target: Gal(b1-4)GalNAc(a1-3)[Fuc(a1-2)]Gal(b1-4)GlcNAc
Method in brief: as §1

[21] = biological target: Gal(b1-4)GalNAc(b1-3)[Fuc(a1-2)]Gal(b1-4)GlcNAc
Method in brief: as §1

Gal(b1-4)Glc = biological target: Gal(b1-4)Glc
Method in brief: as §1

Gal(b1-4)Glc6S = biological target: Gal(b1-4)Glc6S
Method in brief: as §1

Gal(b1-4)GlcNAc = biological target: Gal(b1-4)GlcNAc
Method in brief: as §1

[22] = biological target: Gal(b1-4)GlcNAc(a1-6)Gal(b1-4)GlcNAc
Method in brief: as §1

Gal(b1-4)GlcNAc(b1-2)Man = biological target: Gal(b1-4)GlcNAc(b1-2)Man
Method in brief: as §1

[23] = biological target: Gal(b1-4)GlcNAc(b1-2)Man(a1-3)Man(b1-4)GlcNAc(b1-4)GlcNAc
Method in brief: as §1

[24] = biological target: Gal(b1-4)GlcNAc(b1-2)Man(a1-3)[Gal(b1-4)GlcNAc(b1-2)Man(a1-6)]Man(b1-4)GlcNAc(b1-4)GlcNAc
Method in brief: as §1

[25] = biological target: Gal(b1-4)GlcNAc(b1-2)Man(a1-3)[Gal(b1-4)GlcNAc(b1-2)Man(a1-6)]Man(b1-4)GlcNAc(b1-4)[Fuc(a1-6)]GlcNAc
Method in brief: as §1

[26] = biological target: Gal(b1-4)GlcNAc(b1-2)Man(a1-3)[Gal(b1-4)GlcNAc(b1-2)Man(a1-6)][Gal(b1-4)GlcNAc(b1-4)]Man(b1-4)GlcNAc(b1-4)[Fuc(a1-6)]GlcNAc
Method in brief: as §1

[27] = biological target: Gal(b1-4)GlcNAc(b1-2)Man(a1-3)[Gal(b1-4)GlcNAc(b1-2)Man(a1-6)][GlcNAc(b1-4)]Man(b1-4)GlcNAc(b1-4)[Fuc(a1-6)]GlcNAc
Method in brief: as §1

[28] = biological target: Gal(b1-4)GlcNAc(b1-2)Man(a1-3)[GlcNAc(b1-2)Man(a1-6)]Man(b1-4)GlcNAc(b1-4)GlcNAc
Method in brief: as §1

[29] = biological target: Gal(b1-4)GlcNAc(b1-2)Man(a1-3)[GlcNAc(b1-4)][Gal(b1-4)GlcNAc(b1-2)Man(a1-6)]Man(b1-4)GlcNAc(b1-4)GlcNAc
Method in brief: as §1

[30] = biological target: Gal(b1-4)GlcNAc(b1-2)Man(a1-3)[Man(a1-6)]Man(b1-4)GlcNAc(b1-4)GlcNAc
Method in brief: as §1

[31] = biological target: Gal(b1-4)GlcNAc(b1-2)Man(a1-6)Man(b1-4)GlcNAc(b1-4)GlcNAc
Method in brief: as §1

[32] = biological target: Gal(b1-4)GlcNAc(b1-2)Man(a1-6)[GlcNAc(b1-2)Man(a1-3)]Man(b1-4)GlcNAc(b1-4)GlcNAc
Method in brief: as §1

B1: B936 (Bifidobacterium sp) (protein)
chain: MKNWKKAIALVASAAALVSVAACGPSNAGGSSDSGKKTVGFVAVGPEGGFRTANEKDIQKAFEDAGFDLTYSPTQNNDQQKQIQAFNKFVNDEVDAIILSSTEDSGWDDSLKKAAEAEIPVFTVDRNVDVKDAEAKKAIVAHIGPSNVWCGEQAAEFVNKNFPDGANGFILEGPAGLSVVKDRGTGWGNKVASNVKVLESQSANWSTDEAKTVTAGLLDKYKSDNPQFIFAQNDEMGLGAAQAVDAAGLKGKVKIITIDGTKNALQALVDGDLSYVIEYNPIFGKETAQAVKDYLDGKTVEKDIEIESKTFDAASAKEALDNNTRAY
In the case of B1, the “glycan array binding signal (z-score)” value [1] is reported as 0.996, the “glycan array binding signal (z-score)” value [2] is reported as 1.02 and the “glycan array binding signal (z-score)” value [3] is reported as 0.08. For the same binder, the “glycan array binding signal (z-score)” value [4] was -0.132, the “glycan array binding signal (z-score)” value [5] was -0.335 and the “glycan array binding signal (z-score)” value [6] was 0.078. For the same binder, the “glycan array binding signal (z-score)” value [7] was -0.045, the “glycan array binding signal (z-score)” value [8] was 0.725 and the “glycan array binding signal (z-score)” value [9] was 0.367. The “glycan array binding signal (z-score)” value (Gal(b1-3)GlcNAc6S) was 0.196, the “glycan array binding signal (z-score)” value [10] was 0.47 and the “glycan array binding signal (z-score)” value [11] was 1.8. For the same binder, the “glycan array binding signal (z-score)” value [12] was 1.53, the “glycan array binding signal (z-score)” value [13] was -0.183 and the “glycan array binding signal (z-score)” value [14] was 0.293. For the same binder, the “glycan array binding signal (z-score)” value [15] was 1.04, the “glycan array binding signal (z-score)” value [16] was 0.358 and the “glycan array binding signal (z-score)” value [17] was -0.264. For the same binder, the “glycan array binding signal (z-score)” value [18] was -0.509, the “glycan array binding signal (z-score)” value [19] was -0.224 and the “glycan array binding signal (z-score)” value (Gal(b1-4)Gal) was -0.536. For the same binder, the “glycan array binding signal (z-score)” value [20] was 0.315, the “glycan array binding signal (z-score)” value [21] was -0.302 and the “glycan array binding signal (z-score)” value (Gal(b1-4)Glc) was -0.221. The “glycan array binding signal (z-score)” value (Gal(b1-4)Glc6S) was 0.168, the “glycan array binding signal (z-score)” value (Gal(b1-4)GlcNAc) was -0.78 and the “glycan array binding signal (z-score)” value [22] was -0.115. For the same binder, the “glycan array binding signal (z-score)” value (Gal(b1-4)GlcNAc(b1-2)Man) was 0.182, the “glycan array binding signal (z-score)” value [23] was -0.311 and the “glycan array binding signal (z-score)” value [24] was -0.135. The “glycan array binding signal (z-score)” value [25] was 0.084, the “glycan array binding signal (z-score)” value [26] was -0.458 and the “glycan array binding signal (z-score)” value [27] was -0.66. The “glycan array binding signal (z-score)” value [28] was 0.478, the “glycan array binding signal (z-score)” value [29] was -0.716 and the “glycan array binding signal (z-score)” value [30] was -0.822. The “glycan array binding signal (z-score)” value [31] was -0.795 and the “glycan array binding signal (z-score)” value [32] was 0.29.
